Source: patent publication US20050164234A1, “Methods of using mammalian RNase H and compositions thereof” (priority 1997, published 2005)
For some assays here: Where a protein sequence is shown, tags need not be part of it. For some assays here: Construct, isoform or probe ends are uncertain for at least one entry. For some assays here: The comparison behind a weaker result is the experiment's own reference, which may not be listed here.

Assays:
[1] = molecular target: Human RNase H1 (immunoprecipitated from HeLa) (Homo sapiens) (UniProt O60930); assay: enzyme reaction in vitro; settings: 37 C, protein in an extract, label: 5'-32P on RNA, DNA:RNA hybrid
[2] = molecular target: T1, Human RNase H2 (immunoprecipitated from HeLa) (Homo sapiens) (UniProt O75792); assay: enzyme reaction in vitro; settings: 37 C, protein in an extract, label: 5'-32P on RNA, DNA:RNA hybrid
T1 sequence (limits assumed): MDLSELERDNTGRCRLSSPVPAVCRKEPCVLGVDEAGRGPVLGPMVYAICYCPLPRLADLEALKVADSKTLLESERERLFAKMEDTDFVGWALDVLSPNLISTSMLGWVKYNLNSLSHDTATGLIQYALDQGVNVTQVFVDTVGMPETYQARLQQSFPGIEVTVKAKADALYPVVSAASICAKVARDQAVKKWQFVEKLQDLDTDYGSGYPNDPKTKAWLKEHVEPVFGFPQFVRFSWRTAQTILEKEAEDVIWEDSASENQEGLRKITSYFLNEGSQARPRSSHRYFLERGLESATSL

[3] = molecular target: T2, E. coli RNase H1 (Escherichia coli) (UniProt P0A7Y4); assay: competition with a labelled probe; settings: 2'-F on the strand complementary to the DNA; CITED Lima and Crooke 1997 Biochemistry 36, 390-398; purified recombinant protein
T2 sequence (limits assumed): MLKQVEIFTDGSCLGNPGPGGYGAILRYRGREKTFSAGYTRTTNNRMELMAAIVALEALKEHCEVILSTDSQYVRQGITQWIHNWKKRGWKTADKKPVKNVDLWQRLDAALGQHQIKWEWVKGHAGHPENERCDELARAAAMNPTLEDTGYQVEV

[4] = molecular target: T3, Human RNase H1 (wild type) (Homo sapiens) (UniProt O60930); assay: enzyme reaction in vitro; settings: initial rate V0; 17-nt heteroduplex, 1 mM MgCl2, 37 C; cleaves 8-12 nt from 5'-RNA terminus; purified recombinant protein; label: 5'-32P on RNA; DNA:RNA hybrid
T3 sequence: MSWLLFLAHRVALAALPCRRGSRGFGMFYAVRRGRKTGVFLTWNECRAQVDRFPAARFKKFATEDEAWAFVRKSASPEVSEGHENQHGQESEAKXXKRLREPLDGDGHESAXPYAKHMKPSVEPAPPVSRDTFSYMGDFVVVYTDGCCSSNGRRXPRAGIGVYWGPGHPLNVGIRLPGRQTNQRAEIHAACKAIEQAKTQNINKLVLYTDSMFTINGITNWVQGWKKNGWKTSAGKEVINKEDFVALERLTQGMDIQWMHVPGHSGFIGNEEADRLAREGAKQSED

[5] = molecular target: RNase H1[K226,227A] K226A,K227A (Homo sapiens) (UniProt O60930); assay: enzyme reaction in vitro; settings: initial rate V0; 1 mM MgCl2, 37 C; purified recombinant protein; protein details: His6; label: 5'-32P on RNA; DNA:RNA hybrid
[6] = molecular target: RNase H1[ΔI] (Homo sapiens) (UniProt O60930); assay: enzyme reaction in vitro; settings: initial rate V0; 1 mM MgCl2, 37 C; cleaves 7-13 nt from 5'-RNA terminus; purified recombinant protein; protein details: His6; label: 5'-32P on RNA; DNA:RNA hybrid
[7] = molecular target: T4, RNase H1[ΔI-II] (Homo sapiens) (UniProt O60930); assay: enzyme reaction in vitro; settings: initial rate V0; 1 mM MgCl2, 37 C; cleaves 7-13 nt from 5'-RNA terminus; purified recombinant protein; protein details: His6; label: 5'-32P on RNA; DNA:RNA hybrid
T4 sequence: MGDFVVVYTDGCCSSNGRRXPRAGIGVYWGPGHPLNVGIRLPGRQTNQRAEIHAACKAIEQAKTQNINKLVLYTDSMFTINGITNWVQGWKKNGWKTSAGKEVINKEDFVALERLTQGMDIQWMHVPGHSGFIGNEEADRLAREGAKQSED

[8] = molecular target: RNase H1[D145N] (Homo sapiens) (UniProt O60930); assay: competition with a labelled probe; settings: competitively inhibits wild-type RNase H1; wild-type rate alone 6-fold faster; 10-fold mutant excess; purified recombinant protein; protein details: His6; label: 5'-32P on RNA; DNA:RNA hybrid
[9] = molecular target: RNase H1[K226,227,231,236A] K226A,K227A,K231A,K236A (Homo sapiens) (UniProt O60930); assay: competition with a labelled probe; settings: competitively inhibits wild-type RNase H1; rate about 60% slower; purified recombinant protein; protein details: His6; label: 5'-32P on RNA; DNA:RNA hybrid

Which results are given for “ACUGUGCGUGGAAAGCGUAG / CTACGCTTTCCACGCACAGT [20-mer Bcl-x RNA/DNA heteroduplex (ISIS 183349/ISIS 17619)]”?
activity on this sequence ([1]; denaturing gel): active; activity on this sequence ([2]; denaturing gel, pattern differs from RNase H1): active

For “CCACACCGACGGCGCCC / GGGCGCCGUCGGUGUGG [non-cleavable DNA/2'-fluoro heteroduplex]”, which Kd [3] is on record?
Its Kd is 1600 nM.

“GGGCGCCGUCGGUGUGG / CCACACCGACGGCGCCC [17-mer Ras RNA/DNA heteroduplex (ISIS 3058/ISIS 4701)]” was tested. Which “activity on this sequence” value [4] did it give?
Its value is “active”.

What about the “activity on this sequence” value ([1]; TCA and gel assay, 50 nM duplex, pattern identical to purified RNase H1) of the same sequence?
Its value is “active”.

And the “activity on this sequence” value [5]?
The value was “less active”.

What about the “activity on this sequence” value [6] of the same sequence?
Its value is “active”.

What about the “activity on this sequence” value [7] of the same sequence?
Its value is “active”.

And the “activity on this sequence” value ([2]; TCA and gel assay, 50 nM duplex, cleavage pattern differs from RNase H1)?
Its value is “active”.

Does “GGGCGCCGUCGGUGUGG / CCACACCGACGGCGCCC [17-mer Ras RNA/DNA heteroduplex (ISIS 3058/ISIS 4701)]” bind [8]?
Result: binds

Does “GGGCGCCGUCGGUGUGG / CCACACCGACGGCGCCC [17-mer Ras RNA/DNA heteroduplex (ISIS 3058/ISIS 4701)]” bind [9]?
Result: binds
